Measured values as given in the supplement of paper PMC10849652.
Some of the results follow.

Chains of the proteins cited; added tags and fusions are not shown. Lines headed by an entry give the natural chain unless they say otherwise; changes in a name come on top.
UniProt Q9P0T4: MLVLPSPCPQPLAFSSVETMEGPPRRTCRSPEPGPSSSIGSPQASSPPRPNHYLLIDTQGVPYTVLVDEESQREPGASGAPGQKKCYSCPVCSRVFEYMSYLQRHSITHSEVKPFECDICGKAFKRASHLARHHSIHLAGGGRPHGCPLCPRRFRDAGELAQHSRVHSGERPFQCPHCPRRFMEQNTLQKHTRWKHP
UniProt O00488: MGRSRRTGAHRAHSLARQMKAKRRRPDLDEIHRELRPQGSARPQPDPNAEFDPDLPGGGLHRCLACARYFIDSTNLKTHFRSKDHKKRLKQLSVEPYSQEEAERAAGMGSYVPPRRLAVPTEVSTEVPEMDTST
UniProt Q86UK7: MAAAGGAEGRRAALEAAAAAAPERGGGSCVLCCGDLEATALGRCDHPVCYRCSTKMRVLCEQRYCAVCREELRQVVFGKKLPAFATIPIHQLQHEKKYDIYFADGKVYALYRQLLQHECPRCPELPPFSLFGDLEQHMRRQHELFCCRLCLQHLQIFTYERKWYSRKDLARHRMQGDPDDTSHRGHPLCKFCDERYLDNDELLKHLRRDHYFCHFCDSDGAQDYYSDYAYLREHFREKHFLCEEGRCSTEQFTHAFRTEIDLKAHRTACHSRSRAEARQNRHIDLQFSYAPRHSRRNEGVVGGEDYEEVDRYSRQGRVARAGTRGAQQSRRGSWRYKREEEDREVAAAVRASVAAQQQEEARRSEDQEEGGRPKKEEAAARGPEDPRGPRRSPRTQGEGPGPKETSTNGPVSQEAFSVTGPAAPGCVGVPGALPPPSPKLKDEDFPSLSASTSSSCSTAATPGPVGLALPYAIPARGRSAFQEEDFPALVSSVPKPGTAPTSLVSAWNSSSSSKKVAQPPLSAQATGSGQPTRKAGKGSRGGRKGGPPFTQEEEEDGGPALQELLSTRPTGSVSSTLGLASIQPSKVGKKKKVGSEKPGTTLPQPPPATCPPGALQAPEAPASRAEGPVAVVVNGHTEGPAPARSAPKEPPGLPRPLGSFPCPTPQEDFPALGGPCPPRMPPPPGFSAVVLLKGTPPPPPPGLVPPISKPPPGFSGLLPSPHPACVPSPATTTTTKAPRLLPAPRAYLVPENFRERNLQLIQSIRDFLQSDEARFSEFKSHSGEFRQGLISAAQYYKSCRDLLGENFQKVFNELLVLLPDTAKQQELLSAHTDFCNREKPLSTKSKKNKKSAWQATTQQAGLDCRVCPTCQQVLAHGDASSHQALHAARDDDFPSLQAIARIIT
UniProt Q5T7W0: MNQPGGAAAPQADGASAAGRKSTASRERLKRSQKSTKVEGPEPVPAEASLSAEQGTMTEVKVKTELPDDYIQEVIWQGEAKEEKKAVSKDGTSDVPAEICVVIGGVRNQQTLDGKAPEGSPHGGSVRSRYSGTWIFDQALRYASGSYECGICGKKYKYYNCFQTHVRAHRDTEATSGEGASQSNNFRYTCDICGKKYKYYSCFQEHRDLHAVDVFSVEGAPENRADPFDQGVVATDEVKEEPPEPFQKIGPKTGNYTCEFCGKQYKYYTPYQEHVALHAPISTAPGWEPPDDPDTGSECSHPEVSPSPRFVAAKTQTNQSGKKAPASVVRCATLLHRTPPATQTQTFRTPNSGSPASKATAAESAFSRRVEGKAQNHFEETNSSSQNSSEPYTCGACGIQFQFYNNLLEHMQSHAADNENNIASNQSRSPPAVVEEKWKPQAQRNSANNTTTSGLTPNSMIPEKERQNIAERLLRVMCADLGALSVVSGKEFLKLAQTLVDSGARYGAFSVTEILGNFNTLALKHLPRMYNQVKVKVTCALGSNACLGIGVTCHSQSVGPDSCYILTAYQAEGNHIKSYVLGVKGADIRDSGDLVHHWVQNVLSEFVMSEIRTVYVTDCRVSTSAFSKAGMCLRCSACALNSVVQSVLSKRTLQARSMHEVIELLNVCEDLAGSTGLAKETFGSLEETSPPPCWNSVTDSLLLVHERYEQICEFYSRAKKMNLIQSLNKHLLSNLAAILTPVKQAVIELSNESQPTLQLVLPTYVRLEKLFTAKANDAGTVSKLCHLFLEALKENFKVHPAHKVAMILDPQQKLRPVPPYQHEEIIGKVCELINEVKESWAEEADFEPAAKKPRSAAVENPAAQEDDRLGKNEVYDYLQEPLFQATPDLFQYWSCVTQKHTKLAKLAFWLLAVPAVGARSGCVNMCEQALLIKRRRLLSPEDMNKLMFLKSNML
UniProt Q9UEG4: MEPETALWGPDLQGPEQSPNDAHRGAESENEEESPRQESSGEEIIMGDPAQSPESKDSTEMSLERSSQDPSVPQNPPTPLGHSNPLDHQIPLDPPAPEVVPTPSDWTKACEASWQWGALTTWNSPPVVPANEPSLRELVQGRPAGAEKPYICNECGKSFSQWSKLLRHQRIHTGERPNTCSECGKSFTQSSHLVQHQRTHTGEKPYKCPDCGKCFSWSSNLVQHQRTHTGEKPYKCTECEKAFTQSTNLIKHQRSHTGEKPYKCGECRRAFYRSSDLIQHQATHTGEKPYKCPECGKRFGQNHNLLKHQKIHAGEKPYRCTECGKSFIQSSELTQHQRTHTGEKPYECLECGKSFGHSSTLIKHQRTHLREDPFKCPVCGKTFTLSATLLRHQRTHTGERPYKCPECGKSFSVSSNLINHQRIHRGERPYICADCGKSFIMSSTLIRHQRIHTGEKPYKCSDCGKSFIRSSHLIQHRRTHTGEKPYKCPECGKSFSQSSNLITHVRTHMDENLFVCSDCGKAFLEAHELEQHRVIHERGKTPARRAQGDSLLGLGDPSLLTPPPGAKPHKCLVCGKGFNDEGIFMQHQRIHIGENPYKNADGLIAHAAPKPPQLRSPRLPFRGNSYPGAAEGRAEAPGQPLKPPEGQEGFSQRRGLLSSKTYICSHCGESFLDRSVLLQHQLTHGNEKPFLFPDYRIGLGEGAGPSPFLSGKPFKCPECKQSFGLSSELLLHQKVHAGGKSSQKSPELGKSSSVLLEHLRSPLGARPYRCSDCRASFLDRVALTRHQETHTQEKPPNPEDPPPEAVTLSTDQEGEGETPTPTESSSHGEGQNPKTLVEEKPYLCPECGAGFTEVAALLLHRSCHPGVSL
UniProt Q9H609: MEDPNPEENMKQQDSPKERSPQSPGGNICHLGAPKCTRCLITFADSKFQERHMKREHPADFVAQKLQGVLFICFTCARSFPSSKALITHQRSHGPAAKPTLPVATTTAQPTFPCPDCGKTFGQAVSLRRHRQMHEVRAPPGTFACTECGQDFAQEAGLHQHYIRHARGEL
UniProt Q8NB15: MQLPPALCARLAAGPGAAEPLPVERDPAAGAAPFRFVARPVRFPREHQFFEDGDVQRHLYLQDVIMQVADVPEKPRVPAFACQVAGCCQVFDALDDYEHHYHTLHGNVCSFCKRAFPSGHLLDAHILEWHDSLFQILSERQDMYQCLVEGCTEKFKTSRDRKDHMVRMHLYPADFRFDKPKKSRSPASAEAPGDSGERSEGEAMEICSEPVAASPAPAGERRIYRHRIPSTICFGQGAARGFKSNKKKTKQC
UniProt Q8NAF0: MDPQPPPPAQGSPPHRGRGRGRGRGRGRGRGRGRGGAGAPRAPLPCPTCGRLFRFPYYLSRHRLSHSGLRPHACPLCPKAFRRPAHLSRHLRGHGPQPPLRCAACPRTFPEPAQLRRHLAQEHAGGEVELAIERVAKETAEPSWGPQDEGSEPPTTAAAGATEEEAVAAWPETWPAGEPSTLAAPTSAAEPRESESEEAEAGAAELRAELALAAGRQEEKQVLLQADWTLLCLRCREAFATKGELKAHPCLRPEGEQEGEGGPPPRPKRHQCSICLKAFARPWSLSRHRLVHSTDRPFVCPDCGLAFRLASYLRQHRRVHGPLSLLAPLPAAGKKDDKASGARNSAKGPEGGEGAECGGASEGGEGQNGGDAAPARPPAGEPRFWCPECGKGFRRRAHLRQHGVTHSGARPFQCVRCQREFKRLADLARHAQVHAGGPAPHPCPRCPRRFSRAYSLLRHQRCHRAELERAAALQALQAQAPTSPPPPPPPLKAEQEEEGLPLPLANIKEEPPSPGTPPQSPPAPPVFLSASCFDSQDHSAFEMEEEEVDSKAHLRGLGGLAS
UniProt O15014: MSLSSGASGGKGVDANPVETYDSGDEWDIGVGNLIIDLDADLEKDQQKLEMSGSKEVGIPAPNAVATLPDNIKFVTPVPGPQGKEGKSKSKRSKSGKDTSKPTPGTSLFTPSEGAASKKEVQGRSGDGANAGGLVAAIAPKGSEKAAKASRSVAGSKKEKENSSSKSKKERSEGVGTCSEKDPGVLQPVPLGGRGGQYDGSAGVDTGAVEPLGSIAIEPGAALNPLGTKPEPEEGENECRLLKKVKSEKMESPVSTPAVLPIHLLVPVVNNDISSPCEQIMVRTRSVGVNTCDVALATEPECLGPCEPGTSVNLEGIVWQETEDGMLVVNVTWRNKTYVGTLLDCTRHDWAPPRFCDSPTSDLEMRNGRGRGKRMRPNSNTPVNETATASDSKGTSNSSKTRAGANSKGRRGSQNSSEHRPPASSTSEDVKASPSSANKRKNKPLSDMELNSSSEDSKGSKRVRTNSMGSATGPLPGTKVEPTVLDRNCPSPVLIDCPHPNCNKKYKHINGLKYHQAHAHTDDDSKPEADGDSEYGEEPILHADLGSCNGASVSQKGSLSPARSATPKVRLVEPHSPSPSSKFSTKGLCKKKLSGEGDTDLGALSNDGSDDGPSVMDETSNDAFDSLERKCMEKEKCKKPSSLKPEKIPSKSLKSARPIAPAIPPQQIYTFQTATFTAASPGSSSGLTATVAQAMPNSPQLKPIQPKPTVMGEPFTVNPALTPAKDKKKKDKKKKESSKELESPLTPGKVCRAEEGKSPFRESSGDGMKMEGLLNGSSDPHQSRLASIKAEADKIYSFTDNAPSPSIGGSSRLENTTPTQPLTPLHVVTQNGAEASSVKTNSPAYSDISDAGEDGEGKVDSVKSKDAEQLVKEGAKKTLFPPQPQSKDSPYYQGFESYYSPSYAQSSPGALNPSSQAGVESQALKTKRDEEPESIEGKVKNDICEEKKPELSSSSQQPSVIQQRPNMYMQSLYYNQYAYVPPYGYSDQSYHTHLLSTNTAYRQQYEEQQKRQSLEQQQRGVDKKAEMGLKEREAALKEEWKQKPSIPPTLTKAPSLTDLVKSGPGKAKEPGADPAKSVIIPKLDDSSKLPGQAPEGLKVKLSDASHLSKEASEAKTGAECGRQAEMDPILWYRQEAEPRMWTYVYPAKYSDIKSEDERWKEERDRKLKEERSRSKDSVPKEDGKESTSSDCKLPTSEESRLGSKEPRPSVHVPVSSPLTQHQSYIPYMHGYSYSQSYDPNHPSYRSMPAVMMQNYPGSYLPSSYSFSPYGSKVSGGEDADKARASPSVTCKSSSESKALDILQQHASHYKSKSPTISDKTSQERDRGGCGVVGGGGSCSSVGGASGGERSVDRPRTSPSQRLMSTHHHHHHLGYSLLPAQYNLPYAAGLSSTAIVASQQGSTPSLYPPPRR
UniProt Q969S3: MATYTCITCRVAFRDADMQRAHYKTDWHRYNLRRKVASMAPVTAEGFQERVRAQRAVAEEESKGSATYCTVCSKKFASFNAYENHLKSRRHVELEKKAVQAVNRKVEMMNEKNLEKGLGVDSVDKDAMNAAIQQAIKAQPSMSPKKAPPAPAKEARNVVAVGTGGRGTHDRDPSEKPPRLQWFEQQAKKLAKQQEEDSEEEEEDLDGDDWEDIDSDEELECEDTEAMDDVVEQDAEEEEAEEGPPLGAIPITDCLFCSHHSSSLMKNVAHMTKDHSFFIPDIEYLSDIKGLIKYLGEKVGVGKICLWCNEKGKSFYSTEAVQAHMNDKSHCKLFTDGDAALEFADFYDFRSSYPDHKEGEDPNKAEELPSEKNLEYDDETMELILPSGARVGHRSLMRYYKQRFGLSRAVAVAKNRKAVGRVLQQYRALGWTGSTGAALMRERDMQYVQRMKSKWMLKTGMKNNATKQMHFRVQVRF
UniProt Q9UID6: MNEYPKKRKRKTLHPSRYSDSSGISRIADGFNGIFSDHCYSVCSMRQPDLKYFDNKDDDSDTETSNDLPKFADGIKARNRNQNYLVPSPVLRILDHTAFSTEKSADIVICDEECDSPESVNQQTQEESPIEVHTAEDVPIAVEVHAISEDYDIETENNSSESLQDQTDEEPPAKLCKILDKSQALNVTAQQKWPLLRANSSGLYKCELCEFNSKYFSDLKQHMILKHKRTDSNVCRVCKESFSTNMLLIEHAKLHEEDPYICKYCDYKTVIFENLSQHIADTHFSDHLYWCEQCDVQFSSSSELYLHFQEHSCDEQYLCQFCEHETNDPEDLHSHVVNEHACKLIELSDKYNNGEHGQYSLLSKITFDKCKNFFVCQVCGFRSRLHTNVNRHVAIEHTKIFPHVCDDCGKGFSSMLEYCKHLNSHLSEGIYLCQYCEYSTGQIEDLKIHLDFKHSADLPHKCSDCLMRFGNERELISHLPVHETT
UniProt Q9UK33: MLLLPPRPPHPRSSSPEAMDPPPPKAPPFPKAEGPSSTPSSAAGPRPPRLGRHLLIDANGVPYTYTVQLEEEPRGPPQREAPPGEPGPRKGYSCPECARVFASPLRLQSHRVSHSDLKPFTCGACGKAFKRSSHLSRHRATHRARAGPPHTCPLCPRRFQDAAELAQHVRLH

Assays:
Assay in all cases: log2 fold change, soluble protein after heating vs DMSO (PISA); higher = thermal stabilisation; K562 cells, 10 uM, 30 min; active = over 0.2 and 3.5 SD of the protein, either way, in both replicates (recomputed)
ZNF428 = ZNF428 (UniProt M0QXZ5)
Summary of the method: (§1)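 K562 cells at 2×10^6 cells/mL were exposed to 10 μM compound for 30 min, then aliquots were heated for 3 min across 48°C-58°C, pooled, and extracted in PBS containing 0.5% NP-40 at 4°C. The supernatant after 21,000xg for 90 min was taken as soluble protein and measured by TMTpro 16plex LC-MS/MS with channel sums equalised. Thermal stability is reported relative to control samples, with values from duplicates. Fold changes are given on a log2 scale.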

ZNF581 = ZNF581 (UniProt Q9P0T4)
Summary of the method: as §1

ZNF593 = ZNF593 (UniProt O00488)
Summary of the method: as §1

ZNF598 = ZNF598 (UniProt Q86UK7)
Summary of the method: as §1

ZNF618 [1] = molecular target: ZNF618 (UniProt Q5T7W0)
Summary of the method: as §1

ZNF618 isoform 2 = ZNF618 isoform 2 (UniProt Q5T7W0)
Summary of the method: as §1

ZNF629 = ZNF629 (UniProt Q9UEG4)
Summary of the method: as §1

ZNF638 = ZNF638 (UniProt Q14966)
Summary of the method: as §1

ZNF512B = ZNF512B (UniProt Q96KM6)
Summary of the method: as §1

ZNF576 = ZNF576 (UniProt Q9H609)
Summary of the method: as §1

ZNF511 isoform 1 = ZNF511 isoform 1 (UniProt Q8NB15)
Summary of the method: as §1

ZNF579 = ZNF579 (UniProt Q8NAF0)
Summary of the method: as §1

ZNF609 = ZNF609 (UniProt O15014)
Summary of the method: as §1

ZNF618 [2] = molecular target: ZNF618 (UniProt B1ALC2)
Summary of the method: as §1

ZNF622 = ZNF622 (UniProt Q969S3)
Summary of the method: as §1

ZNF639 = ZNF639 (UniProt Q9UID6)
Summary of the method: as §1

ZNF580 = ZNF580 (UniProt Q9UK33)
Summary of the method: as §1

ZNF512 = ZNF512 (UniProt Q96ME7)
Summary of the method: as §1

Measured: log2 fold change

C[C@H](Nc1ncnc2nc[nH]c12)c1cc2cccc(Cl)c2c(=O)n1-c1ccccc1 [duvelisib]
inactive: ZNF428 = 0.104 | ZNF581 = -0.045 | ZNF593 = -0.17 | ZNF598 = -0.054 | ZNF618 [1] -0.067 | ZNF618 isoform 2 = -0.018 | ZNF629 = -0.097 | ZNF638 = -0.086

CCn1c(C(=O)N(C2CC2)C2CC2)cc2c3c(ncn3C)c(Nc3cc(C)n(C)n3)nc21
inactive: ZNF428 = 0.01 | ZNF512B 0.196 | ZNF576 = 0.076 | ZNF593 = 0.035 | ZNF598 = -0.086 | ZNF618 [1] -0.068 | ZNF618 isoform 2 = -0.301 | ZNF629 = -0.284 | ZNF638 = 0.019

C=CC(=O)N1CCC[C@@H](n2nc(-c3ccc(Oc4ccccc4)cc3)c3c(N)ncnc32)C1 [ibrutinib]
inactive: ZNF428 = 0.019 | ZNF511 isoform 1 = 0.047 | ZNF579 = -0.024 | ZNF593 = 0.061 | ZNF598 = -0.019 | ZNF609 = -0.024 | ZNF618 [2] -0.033 | ZNF618 [1] 0.004 | ZNF618 isoform 2 = -0.003 | ZNF622 = -0.003 | ZNF629 = -0.049 | ZNF638 = 0.023

Cc1ccc(NC(=O)c2ccc(CN3CC[C@H](N(C)C)C3)c(C(F)(F)F)c2)cc1Nc1nccc(-c2cncnc2)n1 [bafetinib]
inactive: ZNF428 = -0.044 | ZNF511 isoform 1 = -0.098 | ZNF579 = 0.107 | ZNF593 = 0.142 | ZNF598 = 0.001 | ZNF609 = -0.233 | ZNF618 [2] -0.221 | ZNF618 [1] -0.093 | ZNF618 isoform 2 = 0.017 | ZNF622 = 0.021 | ZNF629 = 0.151 | ZNF638 = -0.023

c1cn2cc(-c3ccc4cn[nH]c4c3)nc(Nc3ccc(N4CCOCC4)cc3)c2n1 [entospletinib]
inactive: ZNF428 = -0.022 | ZNF593 = 0.071 | ZNF598 = -0.024 | ZNF618 [1] -0.01 | ZNF618 isoform 2 = 0.072 | ZNF629 = 0.17 | ZNF638 = -0.023 | ZNF639 = 0.061

Cc1cc(SCc2sc(-c3ccc(C(F)(F)F)cc3)nc2C)ccc1OCC(=O)O
inactive: ZNF428 = -0.034 | ZNF579 = -0.009 | ZNF580 = -0.301 | ZNF581 = -0.029 | ZNF593 = -0.121 | ZNF598 = 0.045 | ZNF609 = -0.134 | ZNF618 [1] 0.023 | ZNF618 isoform 2 = 0.078 | ZNF622 = -0.009 | ZNF629 = 0.008 | ZNF638 = -0.187

Cc1cccc(-c2[nH]c(C(C)(C)C)nc2-c2ccc3nccnc3c2)n1
inactive: ZNF428 = -0.06 | ZNF512B -0.148 | ZNF579 = -0.073 | ZNF580 = -0.183 | ZNF593 = -0.117 | ZNF598 = -0.021 | ZNF609 = 0.014 | ZNF618 [2] 0.055 | ZNF618 [1] 0 | ZNF622 = 0.008 | ZNF629 = -0.118 | ZNF638 = 0.009 | ZNF639 = -0.162

C#Cc1cccc(Nc2ncnc3cc(OCCOC)c(OCCOC)cc23)c1 [erlotinib]
inactive: ZNF428 = -0.014 | ZNF512 = -0.048 | ZNF512B 0.038 | ZNF576 = -0.129 | ZNF579 = -0.056 | ZNF593 = -0.213 | ZNF598 = 0.105 | ZNF609 = 0.03 | ZNF618 [1] 0.021 | ZNF618 isoform 2 = -0.189 | ZNF622 = 0.056 | ZNF629 = -0.27 | ZNF638 = 0.049

CN1CCC(CNc2ccc3ncc(-c4cccc(OC(F)(F)F)c4)n3n2)CC1
inactive: ZNF428 = 0.002 | ZNF579 = 0.103 | ZNF580 = 0.054 | ZNF593 = 0.201 | ZNF598 = -0.152 | ZNF609 = -0.134 | ZNF618 [2] 0.044 | ZNF618 [1] -0.105 | ZNF622 = 0.03 | ZNF629 = 0.177 | ZNF638 = 0.046 | ZNF639 = -0.391

Cc1cc(Nc2cc(CN3CCOCC3)c3nc(C)c(Cc4ccc(Cl)cc4F)n3n2)n[nH]1 [gandotinib]
inactive: ZNF428 = 0.016 | ZNF579 = 0.036 | ZNF580 = 0.041 | ZNF593 = 0.202 | ZNF598 = -0.104 | ZNF609 = -0.073 | ZNF618 [2] 0.162 | ZNF618 [1] -0.005 | ZNF622 = 0.075 | ZNF629 = 0.076 | ZNF638 = -0.04 | ZNF639 = -0.207

Looked up by compound from the list above, 2 records:
C[C@H](Nc1ncnc2nc[nH]c12)c1cc2cccc(Cl)c2c(=O)n1-c1ccccc1 [duvelisib]
inactive: ZNF428 = 0.104 | ZNF581 = -0.045 | ZNF593 = -0.17 | ZNF598 = -0.054 | ZNF618 [1] -0.067 | ZNF618 isoform 2 = -0.018 | ZNF629 = -0.097 | ZNF638 = -0.086

Cc1cccc(-c2[nH]c(C(C)(C)C)nc2-c2ccc3nccnc3c2)n1
inactive: ZNF428 = -0.06 | ZNF512B -0.148 | ZNF579 = -0.073 | ZNF580 = -0.183 | ZNF593 = -0.117 | ZNF598 = -0.021 | ZNF609 = 0.014 | ZNF618 [2] 0.055 | ZNF618 [1] 0 | ZNF622 = 0.008 | ZNF629 = -0.118 | ZNF638 = 0.009 | ZNF639 = -0.162

Next part

CN1CCN(CCOc2cc(OC3CCOCC3)c3c(Nc4c(Cl)ccc5c4OCO5)ncnc3c2)CC1 [saracatinib]
inactive: ZNF428 = 0.037 | ZNF579 = -0.025 | ZNF580 = 0.108 | ZNF581 = -0.484 | ZNF593 = 0.091 | ZNF598 = -0.007 | ZNF609 = 0.047 | ZNF618 [1] 0.102 | ZNF618 isoform 2 = 0.095 | ZNF622 = -0.005 | ZNF629 = -0.107 | ZNF638 = 0.019

CC(C)N(C[C@H]1O[C@@H](n2cnc3c(N)ncnc32)[C@H](O)[C@@H]1O)[C@H]1C[C@@H](CCc2nc3cc(C(C)(C)C)ccc3[nH]2)C1 [pinometostat]
inactive: ZNF428 = 0.029 | ZNF512B 0.305 | ZNF579 = 0.02 | ZNF580 = -0.072 | ZNF593 = 0.293 | ZNF598 = 0 | ZNF609 = 0.03 | ZNF618 [2] -0.028 | ZNF618 [1] -0.019 | ZNF622 = 0.014 | ZNF629 = 0.234 | ZNF638 = 0.018 | ZNF639 = 0.127

Cn1c2cc(S(C)=O)sc2c2cnn(Cc3cccc(N)c3)c(=O)c21 (centres undefined)
inactive: ZNF428 = -0.081 | ZNF579 = 0.008 | ZNF580 = 0.259 | ZNF581 = 0.127 | ZNF593 = 0.225 | ZNF598 = 0.034 | ZNF609 = 0.021 | ZNF618 [1] 0.003 | ZNF618 isoform 2 = 0.139 | ZNF622 = -0.061 | ZNF629 = 0.259 | ZNF638 = 0.073

O=C(CCCCCCC(=O)Nc1ccccc1)NO [vorinostat]
inactive: ZNF428 = 0.046 | ZNF579 = -0.032 | ZNF580 = -0.064 | ZNF593 = 0.033 | ZNF598 = 0.098 | ZNF609 = -0.128 | ZNF618 [2] 0.025 | ZNF618 [1] -0.017 | ZNF622 = -0.049 | ZNF629 = -0.089 | ZNF638 = 0.015 | ZNF639 = -0.011

CC(C)c1cnn2c(NCc3ccccc3)cc(NCCCCCCN)nc12
inactive: ZNF428 = 0.044 | ZNF512 = 0.321 | ZNF512B -0.001 | ZNF576 = 0.276 | ZNF579 = 0.054 | ZNF593 = -0.092 | ZNF598 = -0.043 | ZNF609 = -0.042 | ZNF618 [1] 0.031 | ZNF618 isoform 2 = -0.095 | ZNF622 = -0.011 | ZNF629 = 0.116 | ZNF638 = -0.124

CN(CCOc1ccc(C[C@@H]2SC(=O)NC2=O)cc1)c1ccccn1 (racemic) [rosiglitazone]
inactive: ZNF428 = 0.019 | ZNF593 = -0.044 | ZNF598 = 0.065 | ZNF618 [2] 0.122 | ZNF618 [1] 0.002 | ZNF618 isoform 2 = 0.131 | ZNF629 = -0.049 | ZNF638 = 0.039

Cc1ccc(-n2nc(C(C)(C)C)cc2NC(=O)Nc2ccc(OCCN3CCOCC3)c3ccccc23)cc1 [doramapimod]
inactive: ZNF428 = -0.052 | ZNF512B 0.188 | ZNF579 = 0.11 | ZNF580 = 0.165 | ZNF593 = 0.193 | ZNF598 = 0.035 | ZNF609 = 0.036 | ZNF618 [2] 0.076 | ZNF618 [1] -0.043 | ZNF622 = 0.009 | ZNF629 = 0.29 | ZNF638 = 0.053 | ZNF639 = 0.071
